Source: PMC4617701

Amino acid sequences for entries named in this document (tags omitted). A change or cut given only in a name is not applied to a line headed by its entry. Chains listed by the source or under a name are the forms on record and can include a tag or linker.
Strep/FLAG-tagged (SF-TAP) NINL isoform B (Q9Y2I6, form named): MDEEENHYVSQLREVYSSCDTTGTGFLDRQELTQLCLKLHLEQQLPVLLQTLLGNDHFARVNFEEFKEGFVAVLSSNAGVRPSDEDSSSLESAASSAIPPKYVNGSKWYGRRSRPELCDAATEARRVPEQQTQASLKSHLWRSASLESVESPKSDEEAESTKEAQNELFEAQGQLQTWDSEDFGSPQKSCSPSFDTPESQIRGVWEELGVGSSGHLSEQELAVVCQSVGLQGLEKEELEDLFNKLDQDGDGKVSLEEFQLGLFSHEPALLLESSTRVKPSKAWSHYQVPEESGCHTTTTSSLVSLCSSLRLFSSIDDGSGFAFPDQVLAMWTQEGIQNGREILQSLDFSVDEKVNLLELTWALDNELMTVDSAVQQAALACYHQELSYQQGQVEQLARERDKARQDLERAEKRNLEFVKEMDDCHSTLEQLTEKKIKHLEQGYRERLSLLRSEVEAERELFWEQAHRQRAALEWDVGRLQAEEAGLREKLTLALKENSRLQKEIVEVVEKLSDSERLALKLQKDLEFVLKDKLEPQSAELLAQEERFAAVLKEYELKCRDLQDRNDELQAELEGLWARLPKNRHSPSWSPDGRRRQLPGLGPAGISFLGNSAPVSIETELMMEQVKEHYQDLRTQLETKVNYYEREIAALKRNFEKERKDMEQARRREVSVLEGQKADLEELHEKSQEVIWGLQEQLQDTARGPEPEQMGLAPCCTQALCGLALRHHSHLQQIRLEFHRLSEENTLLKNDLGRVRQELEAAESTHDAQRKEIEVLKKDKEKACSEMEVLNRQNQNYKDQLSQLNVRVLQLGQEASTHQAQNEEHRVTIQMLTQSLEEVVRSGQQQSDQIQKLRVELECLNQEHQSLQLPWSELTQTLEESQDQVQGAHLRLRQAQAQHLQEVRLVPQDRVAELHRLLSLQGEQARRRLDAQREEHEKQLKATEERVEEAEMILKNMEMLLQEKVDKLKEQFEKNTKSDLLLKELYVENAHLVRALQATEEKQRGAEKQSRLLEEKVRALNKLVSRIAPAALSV
UniProt Q9NZ32: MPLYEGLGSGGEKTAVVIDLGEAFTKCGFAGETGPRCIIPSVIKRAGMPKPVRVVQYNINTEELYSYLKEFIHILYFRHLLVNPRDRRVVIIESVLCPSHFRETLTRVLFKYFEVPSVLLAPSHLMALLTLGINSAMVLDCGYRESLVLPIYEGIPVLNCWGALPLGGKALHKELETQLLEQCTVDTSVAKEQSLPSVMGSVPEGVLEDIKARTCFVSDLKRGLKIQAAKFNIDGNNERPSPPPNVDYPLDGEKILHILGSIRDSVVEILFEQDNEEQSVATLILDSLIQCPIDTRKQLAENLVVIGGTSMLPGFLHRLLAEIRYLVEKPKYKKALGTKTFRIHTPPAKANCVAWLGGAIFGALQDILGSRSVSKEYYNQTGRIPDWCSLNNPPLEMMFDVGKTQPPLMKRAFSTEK
UniProt Q9UQM7: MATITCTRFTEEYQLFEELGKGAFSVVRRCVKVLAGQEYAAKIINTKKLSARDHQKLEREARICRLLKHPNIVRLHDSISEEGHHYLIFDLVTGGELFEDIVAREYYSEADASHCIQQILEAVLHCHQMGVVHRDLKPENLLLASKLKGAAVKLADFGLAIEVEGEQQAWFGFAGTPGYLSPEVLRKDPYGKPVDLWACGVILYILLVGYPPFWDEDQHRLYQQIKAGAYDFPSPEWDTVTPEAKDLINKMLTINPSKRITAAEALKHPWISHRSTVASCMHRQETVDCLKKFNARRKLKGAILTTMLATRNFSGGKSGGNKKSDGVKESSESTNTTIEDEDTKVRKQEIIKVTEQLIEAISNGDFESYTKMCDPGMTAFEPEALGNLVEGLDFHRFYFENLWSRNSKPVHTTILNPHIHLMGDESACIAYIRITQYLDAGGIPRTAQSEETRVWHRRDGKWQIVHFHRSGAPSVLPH
UniProt Q13555: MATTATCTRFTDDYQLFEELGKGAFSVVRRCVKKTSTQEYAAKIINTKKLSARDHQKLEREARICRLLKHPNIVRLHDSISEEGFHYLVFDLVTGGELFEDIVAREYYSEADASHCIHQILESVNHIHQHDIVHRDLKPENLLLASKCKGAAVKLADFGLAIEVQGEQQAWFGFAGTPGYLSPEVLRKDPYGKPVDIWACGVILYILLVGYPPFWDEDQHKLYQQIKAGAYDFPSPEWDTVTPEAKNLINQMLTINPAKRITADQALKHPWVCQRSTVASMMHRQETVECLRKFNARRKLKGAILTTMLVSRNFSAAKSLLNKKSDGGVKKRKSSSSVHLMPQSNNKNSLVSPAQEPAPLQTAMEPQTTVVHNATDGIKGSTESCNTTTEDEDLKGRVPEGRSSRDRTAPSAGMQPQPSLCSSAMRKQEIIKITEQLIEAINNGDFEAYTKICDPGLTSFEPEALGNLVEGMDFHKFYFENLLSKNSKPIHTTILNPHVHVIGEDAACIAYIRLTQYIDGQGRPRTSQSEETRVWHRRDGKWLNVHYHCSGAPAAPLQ
UniProt P47756: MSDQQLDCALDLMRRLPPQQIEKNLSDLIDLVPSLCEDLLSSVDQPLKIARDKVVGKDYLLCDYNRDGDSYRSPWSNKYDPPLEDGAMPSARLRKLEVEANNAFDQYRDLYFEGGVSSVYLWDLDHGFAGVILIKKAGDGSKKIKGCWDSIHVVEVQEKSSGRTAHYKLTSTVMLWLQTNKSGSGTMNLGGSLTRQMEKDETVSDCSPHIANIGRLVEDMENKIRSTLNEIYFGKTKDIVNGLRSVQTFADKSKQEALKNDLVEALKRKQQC
UniProt Q13561: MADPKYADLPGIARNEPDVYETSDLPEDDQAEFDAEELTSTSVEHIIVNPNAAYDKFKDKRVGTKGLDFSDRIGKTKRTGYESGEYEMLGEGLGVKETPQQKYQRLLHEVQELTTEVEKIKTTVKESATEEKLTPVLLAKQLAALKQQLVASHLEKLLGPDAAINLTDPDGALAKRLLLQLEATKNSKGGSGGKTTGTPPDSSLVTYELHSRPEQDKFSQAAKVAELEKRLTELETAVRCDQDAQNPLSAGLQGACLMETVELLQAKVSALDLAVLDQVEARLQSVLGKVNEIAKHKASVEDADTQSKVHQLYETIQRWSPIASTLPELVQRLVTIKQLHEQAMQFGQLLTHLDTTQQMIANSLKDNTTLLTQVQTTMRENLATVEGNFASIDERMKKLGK
UniProt O00399: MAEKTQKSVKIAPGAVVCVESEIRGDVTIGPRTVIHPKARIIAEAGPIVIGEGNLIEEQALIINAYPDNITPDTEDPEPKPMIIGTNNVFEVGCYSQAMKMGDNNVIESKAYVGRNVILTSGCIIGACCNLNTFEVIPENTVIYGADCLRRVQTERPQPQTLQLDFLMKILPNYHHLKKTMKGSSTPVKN
UniProt Q9Y6G9: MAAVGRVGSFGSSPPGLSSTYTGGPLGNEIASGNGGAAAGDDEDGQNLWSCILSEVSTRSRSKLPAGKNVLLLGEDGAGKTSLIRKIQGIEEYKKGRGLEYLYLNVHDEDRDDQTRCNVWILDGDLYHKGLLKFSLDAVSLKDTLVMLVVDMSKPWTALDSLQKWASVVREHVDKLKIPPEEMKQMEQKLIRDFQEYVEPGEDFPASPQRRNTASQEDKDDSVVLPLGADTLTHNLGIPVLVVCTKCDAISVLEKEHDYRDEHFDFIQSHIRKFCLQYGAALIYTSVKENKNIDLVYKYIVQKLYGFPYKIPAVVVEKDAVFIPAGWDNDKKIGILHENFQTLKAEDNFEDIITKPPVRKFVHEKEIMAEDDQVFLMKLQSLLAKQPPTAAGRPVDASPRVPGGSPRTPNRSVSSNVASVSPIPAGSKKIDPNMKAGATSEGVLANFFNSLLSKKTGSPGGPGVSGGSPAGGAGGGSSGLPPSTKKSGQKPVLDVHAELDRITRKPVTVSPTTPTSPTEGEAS
UniProt O43237: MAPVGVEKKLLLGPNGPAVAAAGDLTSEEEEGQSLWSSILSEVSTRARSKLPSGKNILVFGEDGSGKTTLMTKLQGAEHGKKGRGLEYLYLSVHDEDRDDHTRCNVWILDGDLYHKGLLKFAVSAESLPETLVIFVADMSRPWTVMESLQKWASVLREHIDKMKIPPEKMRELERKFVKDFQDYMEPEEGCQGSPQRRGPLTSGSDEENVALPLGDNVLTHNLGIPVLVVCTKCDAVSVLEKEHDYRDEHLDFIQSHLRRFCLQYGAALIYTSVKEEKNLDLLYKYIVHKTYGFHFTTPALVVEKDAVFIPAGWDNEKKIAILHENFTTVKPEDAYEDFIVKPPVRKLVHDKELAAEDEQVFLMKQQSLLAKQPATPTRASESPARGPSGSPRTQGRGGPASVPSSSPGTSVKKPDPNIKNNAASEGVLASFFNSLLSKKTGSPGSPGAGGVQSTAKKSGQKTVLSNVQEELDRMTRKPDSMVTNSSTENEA
UniProt Q9NP97: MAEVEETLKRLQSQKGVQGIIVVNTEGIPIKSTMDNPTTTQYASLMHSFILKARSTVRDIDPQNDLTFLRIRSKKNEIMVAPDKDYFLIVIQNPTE
UniProt Q7RTP6: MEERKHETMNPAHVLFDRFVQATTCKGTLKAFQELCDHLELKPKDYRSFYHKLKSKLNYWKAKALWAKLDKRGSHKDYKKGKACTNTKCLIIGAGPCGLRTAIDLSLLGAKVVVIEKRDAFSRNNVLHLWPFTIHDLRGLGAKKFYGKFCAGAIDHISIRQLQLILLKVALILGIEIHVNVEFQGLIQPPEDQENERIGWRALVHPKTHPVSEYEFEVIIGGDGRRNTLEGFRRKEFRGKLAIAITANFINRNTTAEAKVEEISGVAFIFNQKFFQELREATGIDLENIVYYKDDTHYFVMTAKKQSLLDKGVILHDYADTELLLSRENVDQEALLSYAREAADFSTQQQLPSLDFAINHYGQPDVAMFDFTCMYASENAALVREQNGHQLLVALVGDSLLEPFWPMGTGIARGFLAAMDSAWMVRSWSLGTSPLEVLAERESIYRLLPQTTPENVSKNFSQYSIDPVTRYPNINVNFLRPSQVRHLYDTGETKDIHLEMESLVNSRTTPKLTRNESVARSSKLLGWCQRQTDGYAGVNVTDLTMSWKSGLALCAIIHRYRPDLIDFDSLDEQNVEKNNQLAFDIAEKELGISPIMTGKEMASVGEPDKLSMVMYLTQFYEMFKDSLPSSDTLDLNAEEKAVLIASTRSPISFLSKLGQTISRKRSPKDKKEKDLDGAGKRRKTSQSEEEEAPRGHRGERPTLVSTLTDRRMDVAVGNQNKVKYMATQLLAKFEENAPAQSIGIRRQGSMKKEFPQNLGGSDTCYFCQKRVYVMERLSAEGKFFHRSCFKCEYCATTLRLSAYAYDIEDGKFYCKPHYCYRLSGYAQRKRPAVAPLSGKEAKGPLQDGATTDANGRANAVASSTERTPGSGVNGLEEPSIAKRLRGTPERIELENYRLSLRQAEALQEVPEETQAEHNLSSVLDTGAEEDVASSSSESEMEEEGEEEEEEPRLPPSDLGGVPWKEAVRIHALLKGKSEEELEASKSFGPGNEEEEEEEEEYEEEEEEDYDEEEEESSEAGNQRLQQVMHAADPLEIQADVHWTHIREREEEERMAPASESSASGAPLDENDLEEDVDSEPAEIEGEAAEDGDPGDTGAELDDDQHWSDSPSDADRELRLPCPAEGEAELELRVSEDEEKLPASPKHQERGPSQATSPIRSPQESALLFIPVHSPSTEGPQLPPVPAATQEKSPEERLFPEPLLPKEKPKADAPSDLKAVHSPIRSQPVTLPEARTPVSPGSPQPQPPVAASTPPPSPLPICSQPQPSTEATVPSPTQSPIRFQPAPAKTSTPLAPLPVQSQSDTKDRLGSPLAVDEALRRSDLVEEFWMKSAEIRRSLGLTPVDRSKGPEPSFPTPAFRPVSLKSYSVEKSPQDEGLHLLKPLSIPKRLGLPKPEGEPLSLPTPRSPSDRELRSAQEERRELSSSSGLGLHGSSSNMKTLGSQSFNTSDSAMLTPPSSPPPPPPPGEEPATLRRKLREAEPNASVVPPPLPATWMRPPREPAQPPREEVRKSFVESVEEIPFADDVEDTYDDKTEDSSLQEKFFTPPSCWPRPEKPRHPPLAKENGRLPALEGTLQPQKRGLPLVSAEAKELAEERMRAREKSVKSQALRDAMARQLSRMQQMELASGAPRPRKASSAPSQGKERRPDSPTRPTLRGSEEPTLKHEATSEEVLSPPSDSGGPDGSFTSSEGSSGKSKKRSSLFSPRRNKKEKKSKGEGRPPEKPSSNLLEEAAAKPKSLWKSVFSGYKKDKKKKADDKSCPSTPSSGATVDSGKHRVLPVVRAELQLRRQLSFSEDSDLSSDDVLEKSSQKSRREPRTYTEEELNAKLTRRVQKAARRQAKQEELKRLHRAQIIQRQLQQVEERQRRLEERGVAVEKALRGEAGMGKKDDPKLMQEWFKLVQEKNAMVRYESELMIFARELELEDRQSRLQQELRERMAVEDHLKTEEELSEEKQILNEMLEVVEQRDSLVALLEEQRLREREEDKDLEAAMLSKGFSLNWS

target: Strep/FLAG-tagged (SF-TAP) NINL isoform B (human) (UniProt Q9Y2I6); test: affinity purification with mass spectrometry; N-terminally SF-TAP-tagged NINL transiently expressed in HEK293T; one-step Strep-Tactin purification with SILAC, and tandem affinity purification (TAP); lysis in 0.5% Nonidet-P40 in TBS (30 mM Tris-HCl pH 7.4, 150 mM NaCl); LC-MS/MS

binding, binds:
ARP1 (from UniProt P61163 1-376)
ARP1B (from UniProt P42025 1-376)
ARP10 (from UniProt Q9NZ32 1-417)
CAMK2A (from UniProt Q9UQM7 1-478)
CAMK2D (from UniProt Q13557 1-499)
CAMK2G (from UniProt Q13555 1-558)
CAPZB (from UniProt P47756 1-272)
DCTN1 (from UniProt Q14203 1-1278)
DCTN2 (from UniProt Q13561 1-401)
DCTN3 (from UniProt O75935 1-186)
DCTN4 (from UniProt Q9UJW0 1-460)
DCTN6 (from UniProt O00399 1-190)
DYNC1H1 (from UniProt Q14204 1-4646)
DYNC1LI1 (from UniProt Q9Y6G9 1-523)
DYNC1LI2 (from UniProt O43237 1-492)
DYNCI2 (from UniProt Q13409 1-638)
DYNLRB1 (from UniProt Q9NP97 1-96)
MICAL3 (Microtubule-associated Monooxygenase, Calponin and LIM domain containing 3 protein) (from UniProt Q7RTP6 1-2002)

These are yes or no findings as the source states them, for the method shown. Binding seen in cells or lysates may run through a third protein. These calls come from enrichment with a bait or labelling near it, and not all partners need be listed.
